Where a chain is given by its changes, count along the chain named.
B1: His6-(Z06608)2-Cys (designed binder)
chain: MGSSHHHHHHLQVDAKYAKELHHAFREIKFLPNLTFHQRLAFIVKLDDDPSQSSELLAEAKKLNDAQAPKVDAKYAKELHHAFREIKFLPNLTFHQRLAFIVKLDDDPSQSSELLAEAKKLNDAQAPKVDC
modifications: coupled to resin through the C-terminal cysteine (thioether)
notes: immobilised on SulfoLink Coupling Resin
B2: His6-(Z06638)2-Cys (designed binder)
chain: B1 chain with H22V, H23N, R26S, F30A, F36L, H80V, H81N, R84S, F88A, F94L
modifications: coupled to resin through the C-terminal cysteine (thioether)
notes: as for B1
B3: His6-(Z06650)2-Cys (designed binder)
chain: MGSSHHHHHHLQVDAKYAKEFKLALQEIHYLPNLTLDQRLAFILKLDDDPSQSSELLAEAKKLNDAQAPKVDAKYAKEFKLALQEIHYLPNLTLDQRLAFILKLDDDPSQSSELLAEAKKLNDAQAPKVDC
modifications: coupled to resin through the C-terminal cysteine (thioether)
notes: as for B1

Assays:
PEP08515 = molecular target: T1, PEP08515; experiment: spin column, ligand on SulfoLink resin, bacterial extract with PEP08515, compared with HSA Sepharose (column study II)
T1 construct: applied in a clarified E. coli extract

PEP08517 = molecular target: T2, PEP08517; experiment: spin column, ligand on SulfoLink resin, pure PEP08517, A280 of fractions (column study I)
T2 construct: also called ABD fusion protein PEP08517

Binder | binding result (PEP08515) | binding result (PEP08517)
B1 | binds | binds
B2 | binds | binds
B3 | binds | binds
